At least one compound was matched to its structure with a doubt left.
Tested on: strains TA98
Format: cell-based
Conditions: positive/negative from ratio of colonies to control
Method: Further, the trisazo dye of the present invention is a nontoxic trisazo dye which gives negative results in a back mutation test using an organism, which is generally known as a test method for evaluating toxicity, i.e. AMES test (mutation test).
Evaluation method of Ames test
Regarding various specimen solutions respectively containing a trisazo dyes obtained in Examples 1 to 8 of the present invention and dyes of Comparative Examples 1 to 3, the number of mutant colonies was determined using strains TA98. 2. When the ratio is less than 2, it is "negative" and, when the ratio is more than 2, it is "positive", and the results are shown in Table. 1.

| SMILES | AMES evaluation |
| --- | --- |
| Nc1ccc(N=Nc2ccc(N=Nc3c(S(=O)(=O)[O-])cc4cc(S(=O)(=O)[O-])c(N=Nc5ccc(N=Nc6ccc(N)cc6N)cc5)c(O)c4c3N)cc2)c(N)c1.[Na+].[Na+] [compound 2, C.I. Direct Black 19, reference compound] | Positive (when the ratio is more than 2, it is "positive") |
| Cc1cc(-c2ccc(N=Nc3c(S(=O)(=O)[O-])cc4cc(S(=O)(=O)[O-])c(N=Nc5ccccc5)c(O)c4c3N)c(C)c2)ccc1N=Nc1ccc(N)cc1N.[Na+].[Na+] [compound 3, C.I. Direct Black 154, reference compound] | Positive (when the ratio is more than 2, it is "positive") |

From US5340929A, “Trisazo dye and dye composition containing the same” (Orient Chemical Industries, Ltd., priority 1992, dated 1994)
